Measurements: article PMC10066299
Residue numbers refer to the chain shown, from its start. These are yes or no findings as the source states them, for the method shown. Some binding calls cover weakened binding; strength is not graded here. Tags and fused reporters may be left off the sequences shown.

Legend:
[1] = target: T1, IFT43 with a GFP tag at the C-terminus (human) (UniProt Q96FT9); assay: SEC; FSEC of lysate of HEK293F cells co-expressing the IFT-A subunits, GFP fluorescence of IFT43-GFP monitored; with or without LMNG/CHS added to the lysate; running buffer 20 mM Tris-HCl pH 8.0, 200 mM NaCl, 2 mM DTT, 0.004% LMNG/CHS
T1 sequence: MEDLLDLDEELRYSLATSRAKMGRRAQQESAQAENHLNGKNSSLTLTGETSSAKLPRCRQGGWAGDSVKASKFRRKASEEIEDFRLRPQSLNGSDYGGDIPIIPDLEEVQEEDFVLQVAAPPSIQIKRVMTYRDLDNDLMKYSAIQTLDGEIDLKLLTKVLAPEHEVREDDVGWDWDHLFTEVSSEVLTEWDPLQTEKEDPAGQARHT

[2] = target: T2, IFT43 W174S with a GFP tag at the C-terminus (human) (UniProt Q96FT9); assay: as above
T2 sequence: T1 sequence with W174S

[3] = target: T3, IFT43 W174R with a GFP tag at the C-terminus (human) (UniProt Q96FT9); assay: as above
T3 sequence: T1 sequence with W174R

[4] = target: T1, IFT43 with a GFP tag at the C-terminus (human); assay: affinity co-purification (GFP nanobody beads) and SEC; IFT-A (-IFT140) co-expressed in HEK293F, captured by the GFP on IFT43, GFP cleaved, Superose 6
[5] = target: T4, GST-tagged TULP3 WT (human) (UniProt O75386); assay: pull-down; 10 ug GST-TULP3 variant on GST beads, 330 ug IFT-A in solution; 20 mM Tris-HCl pH 8.0, 70 mM or 100 mM NaCl, 2 mM DTT, 4 °C, 2 h; Coomassie-stained SDS-PAGE; both purified
T4 sequence: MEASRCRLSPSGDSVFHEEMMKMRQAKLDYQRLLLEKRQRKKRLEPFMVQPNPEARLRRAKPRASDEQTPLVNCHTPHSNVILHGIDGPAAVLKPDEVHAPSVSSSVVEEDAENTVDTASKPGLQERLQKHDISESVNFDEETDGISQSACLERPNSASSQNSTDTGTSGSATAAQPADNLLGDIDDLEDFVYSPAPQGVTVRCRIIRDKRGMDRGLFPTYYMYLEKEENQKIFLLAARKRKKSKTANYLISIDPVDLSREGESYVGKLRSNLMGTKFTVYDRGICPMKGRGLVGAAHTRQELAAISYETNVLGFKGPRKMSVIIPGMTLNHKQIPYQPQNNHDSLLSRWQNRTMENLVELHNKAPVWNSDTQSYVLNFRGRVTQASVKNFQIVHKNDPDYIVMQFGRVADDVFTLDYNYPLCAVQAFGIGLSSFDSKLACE

[6] = target: T5, IFT139 (TTC21B/THM1) with N-terminal mCherry tag (human) (UniProt Q7Z4L5); assay: cryo-EM structure; IFT-A complex co-expressed in HEK293F and co-purified; composite map from the IFT-A and IFT-A (-IFT139) datasets; 20 mM Tris-HCl pH 8.0, 200 mM NaCl, 2 mM DTT, 2 mM FFC-8 added; both purified
T5 sequence: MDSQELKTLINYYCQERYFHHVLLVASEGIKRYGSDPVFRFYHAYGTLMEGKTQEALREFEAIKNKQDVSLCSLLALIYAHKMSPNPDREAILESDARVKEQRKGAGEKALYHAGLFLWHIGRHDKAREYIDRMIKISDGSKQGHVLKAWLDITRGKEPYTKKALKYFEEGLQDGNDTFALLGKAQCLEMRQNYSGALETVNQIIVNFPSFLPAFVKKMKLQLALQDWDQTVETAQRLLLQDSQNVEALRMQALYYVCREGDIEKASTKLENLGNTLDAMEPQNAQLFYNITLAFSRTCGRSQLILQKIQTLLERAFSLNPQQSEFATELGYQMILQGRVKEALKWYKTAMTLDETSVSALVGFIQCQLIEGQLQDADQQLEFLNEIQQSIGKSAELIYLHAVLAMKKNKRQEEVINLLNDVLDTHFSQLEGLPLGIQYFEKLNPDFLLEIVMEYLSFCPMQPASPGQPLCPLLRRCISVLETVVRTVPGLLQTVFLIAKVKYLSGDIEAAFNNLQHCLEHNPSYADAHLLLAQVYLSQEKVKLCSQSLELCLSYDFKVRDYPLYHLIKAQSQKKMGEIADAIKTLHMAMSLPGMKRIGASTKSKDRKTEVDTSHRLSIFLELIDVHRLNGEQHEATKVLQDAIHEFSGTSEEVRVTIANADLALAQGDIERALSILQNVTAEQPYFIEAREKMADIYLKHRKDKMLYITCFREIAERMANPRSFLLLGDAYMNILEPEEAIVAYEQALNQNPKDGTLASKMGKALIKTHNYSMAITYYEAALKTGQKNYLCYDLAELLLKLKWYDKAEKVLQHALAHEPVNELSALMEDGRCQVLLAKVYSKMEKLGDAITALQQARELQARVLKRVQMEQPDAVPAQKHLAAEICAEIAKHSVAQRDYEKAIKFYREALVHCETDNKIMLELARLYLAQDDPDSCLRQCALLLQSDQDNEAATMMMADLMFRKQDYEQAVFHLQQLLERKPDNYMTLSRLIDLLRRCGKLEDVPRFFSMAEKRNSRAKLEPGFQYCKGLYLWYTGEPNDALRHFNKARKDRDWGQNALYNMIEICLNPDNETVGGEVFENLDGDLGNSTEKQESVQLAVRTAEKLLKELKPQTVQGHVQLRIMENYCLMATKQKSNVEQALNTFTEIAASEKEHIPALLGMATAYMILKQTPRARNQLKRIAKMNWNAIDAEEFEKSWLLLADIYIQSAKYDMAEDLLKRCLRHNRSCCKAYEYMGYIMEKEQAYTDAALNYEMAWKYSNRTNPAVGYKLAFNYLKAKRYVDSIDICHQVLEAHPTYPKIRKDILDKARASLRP

IFT121 (WDR35) (human) = target: T6, IFT121 (WDR35) (human) (UniProt Q9P2L0); assay: as above
T6 sequence: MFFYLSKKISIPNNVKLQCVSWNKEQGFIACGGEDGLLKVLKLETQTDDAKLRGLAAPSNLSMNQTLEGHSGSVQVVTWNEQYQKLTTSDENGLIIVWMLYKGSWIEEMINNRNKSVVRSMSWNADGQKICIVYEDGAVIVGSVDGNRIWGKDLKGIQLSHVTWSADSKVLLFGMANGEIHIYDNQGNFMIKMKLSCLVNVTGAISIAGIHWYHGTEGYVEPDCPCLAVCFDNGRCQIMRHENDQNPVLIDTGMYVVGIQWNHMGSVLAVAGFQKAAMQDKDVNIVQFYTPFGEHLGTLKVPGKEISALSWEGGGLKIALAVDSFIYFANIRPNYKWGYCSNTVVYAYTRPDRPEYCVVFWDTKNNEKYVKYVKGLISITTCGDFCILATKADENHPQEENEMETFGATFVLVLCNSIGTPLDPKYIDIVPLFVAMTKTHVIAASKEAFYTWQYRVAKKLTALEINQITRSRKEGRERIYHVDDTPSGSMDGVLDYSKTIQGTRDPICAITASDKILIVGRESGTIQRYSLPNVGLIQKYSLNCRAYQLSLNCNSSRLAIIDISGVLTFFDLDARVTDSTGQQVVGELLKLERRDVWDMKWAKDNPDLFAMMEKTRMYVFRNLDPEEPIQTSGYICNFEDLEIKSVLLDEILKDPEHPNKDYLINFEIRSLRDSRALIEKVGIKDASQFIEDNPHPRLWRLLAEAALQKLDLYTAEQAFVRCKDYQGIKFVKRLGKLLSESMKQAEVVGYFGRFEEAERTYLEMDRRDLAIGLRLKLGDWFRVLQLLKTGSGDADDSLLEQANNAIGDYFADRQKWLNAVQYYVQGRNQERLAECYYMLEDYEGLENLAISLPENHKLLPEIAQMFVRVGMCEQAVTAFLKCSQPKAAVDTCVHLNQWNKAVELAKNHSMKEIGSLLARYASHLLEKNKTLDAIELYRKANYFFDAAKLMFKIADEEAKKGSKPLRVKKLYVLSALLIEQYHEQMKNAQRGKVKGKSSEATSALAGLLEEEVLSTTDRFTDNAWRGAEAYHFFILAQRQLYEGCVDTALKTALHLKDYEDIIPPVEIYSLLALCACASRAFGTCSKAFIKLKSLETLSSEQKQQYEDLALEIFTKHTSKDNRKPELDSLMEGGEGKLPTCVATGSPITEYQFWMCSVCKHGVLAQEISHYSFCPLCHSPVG

Question: Which results are given for “the rest IFT-A components (IFT144, IFT140, IFT139, IFT122, IFT121) (from UniProt Q8NEZ3-1 1-1342; Q96RY7-1 1-1462; Q7Z4L5 1-1316; Q9HBG6 1-1241; Q9P2L0 1-1181) (complex)”?
Answer: binding [1]: binds; binding [2]: binds; binding [3]: binds

Question: With “IFT-A subunits without IFT140 and IFT43 (IFT144, IFT139, IFT122, IFT121) (from UniProt Q8NEZ3-1 1-1342; Q7Z4L5 1-1316; Q9HBG6 1-1241; Q9P2L0 1-1181) (complex)” as the molecule, how does the binding [4] read?
Answer: binds

Question: And the binding [1]?
Answer: binds

Question: “human IFT-A complex (IFT144, IFT140, IFT139, IFT122, IFT121, IFT43) (from UniProt Q8NEZ3-1 1-1342; Q96RY7-1 1-1462; Q7Z4L5 1-1316; Q9HBG6 1-1241; Q9P2L0 1-1181; Q96FT9-1 1-208)” was tested. Which binding [5] did it give?
Answer: binds

B1: IFT43 (GFP tag cleaved) (protein, UniProt Q96FT9-1 1-208)
chain: T1 sequence
Question: How did the binding [6] turn out when B1 was run?
Answer: binds

Question: And the binding (IFT121 (WDR35) (human))?
Answer: binds
